Values from PubChem BioAssay AID1259308 (NCATS, 2017).
The whole screen tested about 59,000 reagents; shown is an unselected part. Of all reagents, about 1,510 (2.6%) were called active. 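Calls use total luciferase alone and ignore viability, so some active siRNAs may act by altering cell number.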 Reagents against one gene are numbered here. Not all columns of the deposit are shown.

Purpose: 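Knock-downs that increase output of a recombinant reporter protein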 (primary screen)
Cells: human HEK293 embryonic kidney cells stably expressing firefly luciferase (HEK-CMV-Luc2-Hygro)
Knock-down reagent: single siRNA against human genes, 0.8 pmol siRNA per well
Time to read-out: 72 h
Read-out: 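Luciferase light (ONE-Glo) measured on one replicate plate set and viability (CellTiter-Glo) on the other, scaled to a negative control siRNA, with robust z-scores and luciferase per cell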
Direction: total luciferase, z-score and total luciferase, % of control: higher = more reporter protein produced
Hit rule: 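An siRNA counts as active if its total luciferase robust z-score exceeds 3; genes with two or more such siRNAs out of three were retested with fresh siRNAs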
Meaning of the calls: active = raised luciferase; inactive = no rise

POLR1B #1
- total luciferase, z-score: -0.561
- total luciferase, % of control: 70.7
- outcome: inactive

POLR1B #2
- total luciferase, z-score: -1.86
- total luciferase, % of control: 44.8
- outcome: inactive

POLR1B #3
- total luciferase, z-score: 0.164
- total luciferase, % of control: 85.1
- outcome: inactive

ATP6V1G2 #1
- total luciferase, z-score: -0.421
- total luciferase, % of control: 73.5
- outcome: inactive

ATP6V1G2 #2
- total luciferase, z-score: 0.653
- total luciferase, % of control: 94.9
- outcome: inactive

ATP6V1G2 #3
- total luciferase, z-score: 0.061
- total luciferase, % of control: 83.1
- outcome: inactive

MBOAT2 #1
- total luciferase, z-score: 1.24
- total luciferase, % of control: 107
- outcome: inactive

MBOAT2 #2
- total luciferase, z-score: 0.0296
- total luciferase, % of control: 82.5
- outcome: inactive

MBOAT2 #3
- total luciferase, z-score: -0.508
- total luciferase, % of control: 71.8
- outcome: inactive

TRIM61 #1
- total luciferase, z-score: -1.31
- total luciferase, % of control: 55.9
- outcome: inactive

TRIM61 #2
- total luciferase, z-score: 0.00158
- total luciferase, % of control: 81.9
- outcome: inactive

TRIM61 #3
- total luciferase, z-score: -0.779
- total luciferase, % of control: 66.4
- outcome: inactive

KRTAP19-8 #1
- total luciferase, z-score: 0.538
- total luciferase, % of control: 92.6
- outcome: inactive

KRTAP19-8 #2
- total luciferase, z-score: -0.429
- total luciferase, % of control: 73.3
- outcome: inactive

KRTAP19-8 #3
- total luciferase, z-score: -2.08
- total luciferase, % of control: 40.4
- outcome: inactive

TENM3 #1
- total luciferase, z-score: 0.0866
- total luciferase, % of control: 83.6
- outcome: inactive

TENM3 #2
- total luciferase, z-score: -1.22
- total luciferase, % of control: 57.6
- outcome: inactive

TENM3 #3
- total luciferase, z-score: -0.604
- total luciferase, % of control: 69.9
- outcome: inactive

MAFG #1
- total luciferase, z-score: -0.545
- total luciferase, % of control: 71
- outcome: inactive

MAFG #2
- total luciferase, z-score: -0.013
- total luciferase, % of control: 81.6
- outcome: inactive

MAFG #3
- total luciferase, z-score: -0.923
- total luciferase, % of control: 63.5
- outcome: inactive

HERC4 #1
- total luciferase, z-score: 0.543
- total luciferase, % of control: 92.7
- outcome: inactive

HERC4 #2
- total luciferase, z-score: 0.164
- total luciferase, % of control: 85.1
- outcome: inactive

HERC4 #3
- total luciferase, z-score: -0.786
- total luciferase, % of control: 66.3
- outcome: inactive

CFAP90 #1
- total luciferase, z-score: -1.06
- total luciferase, % of control: 60.9
- outcome: inactive

CFAP90 #2
- total luciferase, z-score: -0.78
- total luciferase, % of control: 66.4
- outcome: inactive

CFAP90 #3
- total luciferase, z-score: -0.212
- total luciferase, % of control: 77.7
- outcome: inactive

LIPC #1
- total luciferase, z-score: 1.55
- total luciferase, % of control: 113
- outcome: inactive

LIPC #2
- total luciferase, z-score: 0.777
- total luciferase, % of control: 97.3
- outcome: inactive

LIPC #3
- total luciferase, z-score: 1.1
- total luciferase, % of control: 104
- outcome: inactive

ULBP2 #1
- total luciferase, z-score: -0.4
- total luciferase, % of control: 73.9
- outcome: inactive

ULBP2 #2
- total luciferase, z-score: 1.22
- total luciferase, % of control: 106
- outcome: inactive

ULBP2 #3
- total luciferase, z-score: 1.19
- total luciferase, % of control: 106
- outcome: inactive

ASTN1 #1
- total luciferase, z-score: 0.557
- total luciferase, % of control: 93
- outcome: inactive

ASTN1 #2
- total luciferase, z-score: 1.19
- total luciferase, % of control: 106
- outcome: inactive

ASTN1 #3
- total luciferase, z-score: -1.54
- total luciferase, % of control: 51.2
- outcome: inactive

TAF1L #1
- total luciferase, z-score: 0.485
- total luciferase, % of control: 91.5
- outcome: inactive

TAF1L #2
- total luciferase, z-score: 0.18
- total luciferase, % of control: 85.5
- outcome: inactive

TAF1L #3
- total luciferase, z-score: -0.657
- total luciferase, % of control: 68.8
- outcome: inactive

TRIM17 #1
- total luciferase, z-score: 1.68
- total luciferase, % of control: 115
- outcome: inactive

TRIM17 #2
- total luciferase, z-score: 0.441
- total luciferase, % of control: 90.7
- outcome: inactive

TRIM17 #3
- total luciferase, z-score: 1.17
- total luciferase, % of control: 105
- outcome: inactive

In a second layout: results already given
{"Target gene": "MBOAT2", "reagent": 1, "total luciferase, z-score": 1.24, "total luciferase, % of control": 107, "outcome": "inactive"}
{"Target gene": "MBOAT2", "reagent": 2, "total luciferase, z-score": 0.0296, "total luciferase, % of control": 82.5, "outcome": "inactive"}
{"Target gene": "MBOAT2", "reagent": 3, "total luciferase, z-score": -0.508, "total luciferase, % of control": 71.8, "outcome": "inactive"}
{"Target gene": "TRIM61", "reagent": 1, "total luciferase, z-score": -1.31, "total luciferase, % of control": 55.9, "outcome": "inactive"}
{"Target gene": "TRIM61", "reagent": 2, "total luciferase, z-score": 0.00158, "total luciferase, % of control": 81.9, "outcome": "inactive"}
